Reference: publication PMC7140707

T1: His6-Gis1 (yeast (S. cerevisiae)) (UniProt Q03833)
T1 sequence: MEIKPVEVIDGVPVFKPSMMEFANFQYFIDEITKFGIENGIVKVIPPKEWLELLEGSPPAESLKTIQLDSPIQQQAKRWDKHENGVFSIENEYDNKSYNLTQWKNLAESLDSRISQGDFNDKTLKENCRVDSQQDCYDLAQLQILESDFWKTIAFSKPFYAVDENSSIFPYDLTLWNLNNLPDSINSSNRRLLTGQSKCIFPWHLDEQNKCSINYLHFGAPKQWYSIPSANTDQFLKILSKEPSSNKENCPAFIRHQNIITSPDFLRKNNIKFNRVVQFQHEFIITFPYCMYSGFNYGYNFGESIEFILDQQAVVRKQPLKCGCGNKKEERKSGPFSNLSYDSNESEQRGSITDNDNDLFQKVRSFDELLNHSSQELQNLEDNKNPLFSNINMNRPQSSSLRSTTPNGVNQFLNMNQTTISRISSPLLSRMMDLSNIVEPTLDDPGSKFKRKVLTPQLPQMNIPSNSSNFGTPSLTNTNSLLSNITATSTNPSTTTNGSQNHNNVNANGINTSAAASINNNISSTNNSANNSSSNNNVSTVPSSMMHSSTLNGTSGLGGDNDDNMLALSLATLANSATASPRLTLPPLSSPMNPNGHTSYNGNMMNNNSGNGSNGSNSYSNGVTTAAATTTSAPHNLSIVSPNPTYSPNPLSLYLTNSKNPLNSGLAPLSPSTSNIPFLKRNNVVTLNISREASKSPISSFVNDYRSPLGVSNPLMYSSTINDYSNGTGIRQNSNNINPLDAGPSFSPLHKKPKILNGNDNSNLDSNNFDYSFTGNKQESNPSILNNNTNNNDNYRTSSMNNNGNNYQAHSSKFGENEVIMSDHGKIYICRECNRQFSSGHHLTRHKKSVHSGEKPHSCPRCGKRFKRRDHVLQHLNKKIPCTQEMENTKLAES

B1: TOS1 (protein, UniProt P38288 24-455)
chain: DCTYSGGNYYCAQTDAIIYSNVGLSATYQDVTNMDESSCACTQADFTASGSLAPFNEELSVHFRGPIELLQFGVYYPNGESNALKKRSEKQSIESCKEGEAVVSRHKHQHKRDVAVEYVQVTSTVYVDSNGQTVTADSTNTVVGPAVPSSYTKDSTVLSSSAQAVETSESQSSISSSKTTSSAAAASSSSSSSSNTNGDWSRGSYFVPGSTSNCTFMNNQGGTAGSGVWSSCFGNSISFAASDGVSGAASAQALGDVTIKSGNEFMIFSGEECSGNNGDCGYYREGIPAYHGFGGADKIFVFEFSMPSDTSGSAYNQDMPAIWLLNAKIPRTLQYGDASCSCWKTGCGEMDLFEILTAGSDKLISHIHDGQDGGTQDYFERPTDGTLKAAVIFNSSDKTIHIIEVDESFDATLSDDVVDQWLSKSGSSAALP
B2: UTR1 (protein, UniProt P21373 1-530)
chain: MKENDMNNGVDKWVNEEDGRNDHHNNNNNLMKKAMMNNEQIDRTQDIDNAKEMLRKISSESSSRRSSLLNKDSSLVNGNANSGGGTSINGTRGSSKSSNTHFQYASTAYGVRMLSKDISNTKVELDVENLMIVTKLNDVSLYFLTRELVEWVLVHFPRVTVYVDSELKNSKKFAAGELCEDSKCRESRIKYWTKDFIREHDVFFDLVVTLGGDGTVLFVSSIFQRHVPPVMSFSLGSLGFLTNFKFEHFREDLPRIMNHKIKTNLRLRLECTIYRRHRPEVDPNTGKKICVVEKLSTHHILNEVTIDRGPSPFLSMLELYGDGSLMTVAQADGLIAATPTGSTAYSLSAGGSLVCPTVNAIALTPICPHALSFRPIILPESINLKVKVSMKSRAPAWAAFDGKDRIELQKGDFITICASPYAFPTVEASPDEFINSISRQLNWNVREQQKSFTHILSQKNQEKYAHEANKVRNQAEPLEVIRDKYSLEADATKENNNGSDDESDDESVNCEACKLKPSSVPKPSQARFSV
B3: YBL081W (protein, UniProt P38180 1-368)
chain: MPGQIISIPFLSQNEDMDKYLLEYRSLKLLHQSSNSFQSHNAPSHQSNYHPHYNHMKYNNTGSYYYYNNNNNSSVNPHNQAGLQSINRSIPSAPYGAYNQNRANDVPYMNTQKKHHRFSANNNLNQQKYKQYPQYTSNPMVTAHLKQTYPQLYYNSNVNAHNNNNNSNNNNNNNNNSNNNNNLYNQTQFSTRYFNSNSSPSLTSSTSNSSSPYNQSTFEYILPSTSAASTNLSSSSSNNSMHTNPTTATSTSADLINDLPVGPTSSSLISDLHSPPTVSFLPASQTLLMSSTTSSSIGTNINPPQHSPSPSQREDFSTAPVNMSSSASLLMNDSSLGWGSNHMNVSSSSQPASSRPFGIWNTDMSVWS
B4: YCL020W (protein, UniProt P25383 1-438)
chain: MESQQLHQNPRSLHGSAYASVTSKEVPSNQDPLAVSASNLPEFDRDSTKVNSQQETTPGTSAVPENHHHVSPQPASVPPPQNGQYQQHGMMTPNKAMASNWAHYQQPSMMTCSHYQTSPAYYQPDPHYPLPQYIPPLSTSSPDPIDSQNQHSEVPQAETKVRNNVLPPHTLTSEENFSTWVKFYIRFLKNSNLGDIIPNDQGEIKRQMTYEEHAYIYNTFQAFAPFHLLPTWVKQILEINYADILTVLCKSVSKMQTNNQELKDWIALANLEYDGSTSADTFEITVSTIIQRLKENNINVSDRLACQLILKGLSGDFKYLRNQYRTKTNMKLSQLFAEIQLIYDENKIMNLNKPSQYKQHSEYKNVSRTSPNTTNTKVTTRNYQRTNSSKPRAAKAHNIATSSKFSRVNNDHINESTVSSQYLSDDNELSLRPATERI
B5: YPK2 (protein, UniProt P18961 1-677)
chain: MHSWRISKFKLGRSKEDDGSSEDENEKSWGNGLFHFHHGEKHHDGSPKNHNHEHEHHIRKINTNETLPSSLSSPKLRNDASFKNPSGIGNDNSKASERKASQSSTETQGPSSESGLMTVKVYSGKDFTLPFPITSNSTILQKLLSSGILTSSSNDASEVAAIMRQLPRYKRVDQDSAGEGLIDRAFATKFIPSSILLPGSTNSSPLLYFTIEFDNSITTISPDMGTMEQPVFNKISTFDVTRKLRFLKIDVFARIPSLLLPSKNWQQEIGEQDEVLKEILKKINTNQDIHLDSFHLPLNLKIDSAAQIRLYNHHWISLERGYGKLNITVDYKPSKNKPLSIDDFDLLKVIGKGSFGKVMQVRKKDTQKIYALKALRKAYIVSKCEVTHTLAERTVLARVDCPFIVPLKFSFQSPEKLYLVLAFINGGELFYHLQHEGRFSLARSRFYIAELLCALDSLHKLDVIYRDLKPENILLDYQGHIALCDFGLCKLNMKDNDKTDTFCGTPEYLAPEILLGQGYTKTVDWWTLGILLYEMMTGLPPYYDENVPVMYKKILQQPLLFPDGFDPAAKDLLIGLLSRDPSRRLGVNGTDEIRNHPFFKDISWKKLLLKGYIPPYKPIVKSEIDTANFDQEFTKEKPIDSVVDEYLSASIQKQFGGWTYIGDEQLGDSPSQGRSIS
B6: YPL247C (protein, UniProt Q12523 1-523)
chain: MDPFHNGNKRSSISFGSSQRQPYNKNNYLSGTNGPSSAAQDQGRGPSPFGMSGNTTNGGNSKRNSGCDLSATYYASRSPMYSPLDFSPPVFSPNHSQLQQARGYAANIPVVSNLMNPSMASVCEYQSHYPLFGLDWSADDYVCLGSYKEDSRNKLQVLHSNDLLSWESVVDADVVYPVSKIQWVPSQLYPRKLATCSDSLRIWSVSPEERQFQEQINLSLCKYNRQHPANPAAADDMKVIGTFPPITSFDWNTVDTNLIISSSIDTTCIVWDLQSSHYVKTQLIAHDSEVFDVRFLTKSTQLFASCGGDGSVRVFDLRSLAHSTIIYEPPSSSVSGATAGTITPSSKGSDALLRLEPSPYDPNVLATFAADSNKIIILDMRNPESPILNLQGHGSSVNGIKWHPTKRNVLLSCGDDCQVLYWDLNSSFMEINAAGSKSPSIHGTSLEDPDGDTEMTDGGAGSGLNEDPLSLNNNSKQVCKTLETPNMMYANKTQEINNIAWRPQRGDWFGCVSGKKFQNVRVL
B7: ADE1 (protein, UniProt P27616 1-306)
chain: MSITKTELDGILPLVARGKVRDIYEVDAGTLLFVATDRISAYDVIMENSIPEKGILLTKLSEFWFKFLSNDVRNHLVDIAPGKTIFDYLPAKLSEPKYKTQLEDRSLLVHKHKLIPLEVIVRGYITGSAWKEYVKTGTVHGLKQPQGLKESQEFPEPIFTPSTKAEQGEHDENISPAQAAELVGEDLSRRVAELAVKLYSKCKDYAKEKGIIIADTKFEFGIDEKTNEIILVDEVLTPDSSRFWNGASYKVGESQDSYDKQFLRDWLTANKLNGVNGVKMPQDIVDRTRAKYIEAYETLTGSKWSH
B8: CAF20 (protein, UniProt P12962 1-161)
chain: MIKYTIDELFQLKPSLTLEVNFDAVEFRAIIEKVKQLQHLKEEEFNSHHVGHFGRRRSSHHHGRPKIKHNKPKVTTDSDGWCTFEAKKKGSGEDDEEETETTPTSTVPVATIAQETLKVKPNNKNISSNRPADTRDIVADKPILGFNAFAALESEDEDDEA
B9: ADH3 (protein, UniProt P07246 25-375)
chain: QSTAAIPKTQKGVIFYENKGKLHYKDIPVPEPKPNEILINVKYSGVCHTDLHAWHGDWPLPVKLPLVGGHEGAGVVVKLGSNVKGWKVGDLAGIKWLNGSCMTCEFCESGHESNCPDADLSGYTHDGSFQQFATADAIQAAKIQQGTDLAEVAPILCAGVTVYKALKEADLKAGDWVAISGAAGGLGSLAVQYATAMGYRVLGIDAGEEKEKLFKKLGGEVFIDFTKTKNMVSDIQEATKGGPHGVINVSVSEAAISLSTEYVRPCGTVVLVGLPANAYVKSEVFSHVVKSINIKGSYVGNRADTREALDFFSRGLIKSPIKIVGLSELPKVYDLMEKGKILGRYVVDTSK
B10: AGE1 (protein, UniProt Q04412 1-482)
chain: MDFYTTDINKNVVPLFSKGTVARTASKAQYPSWCNNALKLTNILLKSLRCKFQTNRCEDDRGFEVYCVILKSIALLMAAKESLILLQIPPSLPSGFPFRSPQLSFTYLSTRLSGSQHKSTHSHHINHQTHPIHSSSSNSNSNNRIPTKTDSSKQHTQHFSFANAGASNRDELLSIVRKIDKSNLKCCDCGSTATVEWVSINLLCILCIKCSGVHRSLGSHISKIRSLTLDNFTSLELMHLLQNNVSNSNVNAIYESNLRNFPVKKITANSDDSERSKFIIDKYQFKKFVIDSNQGREASLKSLIKAIHLDSVFMMQRAIAQSKYSLRELTASEKEQNDLNHSSIFQYSLKHYEIVDGTPIFFITEFLLCNGIHIDNLPKITTNWSPKVLEYWETKLEMYGTFQAVNTSRPRSGPHLNMHSNVDSASSYNKKHDLRVNIPERSASASKRWSLSSIPKSSQNLMSPTNLLTMHKSLKLAKKDKK
B11: ALT1 (protein, UniProt P52893 65-592)
chain: SSSWIVAQNHRRSLSGQSSLNDLRHLNRFPHHTLKTSNNEFYPAEQLTLEDVNENVLKAKYAVRGAIPMRAEELKAQLEKDPQSLPFDRIINANIGNPQQLQQKPLTYYRQVLSLLQYPELLNQNEQQLVDSKLFKLDAIKRAKSLMEDIGGSVGAYSSSQGVEGIRKSVAEFITKRDEGEISYPEDIFLTAGASAAVNYLLSIFCRGPETGVLIPIPQYPLYTATLALNNSQALPYYLDENSGWSTNPEEIETVVKEAIQNEIKPTVLVVINPGNPTGAVLSPESIAQIFEVAAKYGTVVIADEVYQENIFPGTKFHSMKKILRHLQREHPGKFDNVQLASLHSTSKGVSGECGQRGGYMELTGFSHEMRQVILKLASISLCPVVTGQALVDLMVRPPVEGEESFESDQAERNSIHEKLITRAMTLYETFNSLEGIECQKPQGAMYLFPKIDLPFKAVQEARHLELTPDEFYCKKLLESTGICTVPGSGFGQEPGTYHLRTTFLAPGLEWIKKWESFHKEFFDQYRD

The binders below were run against T1, His6-Gis1 (yeast (S. cerevisiae)) (assay: affinity purification with mass spectrometry; His6-Gis1 pre-bound to a Ni Sepharose 6 Fast Flow column; crude yeast extract (Δgis1 cells grown in air or under hypoxia, Δgis1Δhem1 cells at intermediate or high ALA) loaded, 4 °C, 2 h; eluted complexes separated by SDS-PAGE, bands excised, MS; only the target purified).

Binder | binding
B1 | binds
B2 | binds
B3 | binds
B4 | binds
B5 | binds
B6 | binds
B7 | binds
B8 | binds
B9 | binds
B10 | binds
B11 | binds

Results are given in words; binding and its absence hold for the method and conditions named. In cells and extracts the contact can be indirect. These calls come from enrichment with a bait or labelling near it, and not all partners need be listed. Tags and fused reporters may be left off the sequences shown.
